# Source: PubChem BioAssay AID651640 (Broad Institute, 2012)
# About 6,000 (1.7%) of roughly 350,000 compounds were called active. The inconclusive results got no clear call from the source; some entries with a clear call stand among them for comparison. No stated cut-off is given here; in the data, active means CPE inhibition above about 20% (passing the limit was not always enough); inconclusive means no clear call, values can overlap the other calls; tested in BHK-21 cells.
# Assay: protection of cells from dengue 2 killing – plate reader, single concentration, primary screen (AID 651640);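 further: 0% = median of neutral control wells and 100% = median of positive control wells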
# Details: DENV2-infected cells, cytopathic effect rescue, at 9.99 µM, stronger effect = higher value
row,SMILES,CPE inhibition
1,COc1ccc(CNC(=O)[C@@H](NC(=O)C2CCN(C(=O)[C@@H](N)Cc3ccccc3)CC2)C(C)C)cc1,inconclusive: 30.1%
2,COc1cc(/C=C/CNC[C@H]2O[C@@H](n3cc(C)c(=O)[nH]c3=O)C[C@@H]2O)ccc1O,inconclusive: 21.2%
3,COc1ccccc1C#Cc1ccc2c(c1)[C@H]1[C@H](CCN1C(=O)c1ccncc1)[C@H](CO)N2,active: 36%
4,COc1cc(OC)cc(C(=O)Nc2c(C)nn(-c3ccccc3)c2C)c1,inconclusive: 35.5%
5,CCOC(=O)c1cc(-c2nnc(-c3ccc(Oc4ccccc4)cc3)o2)c(C)nc1C,inconclusive: 34.2%
6,CC(C)NC(=O)Nc1ccc2c(c1)C(=O)N([C@@H](C)CO)C[C@@H](C)[C@H](CN(C)C(=O)C1CCCCC1)OCCCC[C@@H](C)O2,inactive: -2.63%
7,C=CC[C@@H](CC(=O)N[C@@H](CO)Cc1ccccc1)C(=O)N[C@@H](COC(=O)[C@@H](CC=C)Cc1ccc(F)cc1)Cc1c[nH]c2ccccc12,active: 72.8%
8,Cn1c(-c2ccc(C#N)cc2)c(C#Cc2ccccc2)c2ccccc21,inconclusive: 37.1%
9,Cc1noc(C)c1NC(=O)N[C@@H]1CC[C@@H](CCNC(=O)C2CCC2)O[C@@H]1CO,inactive: 3.31%
10,Cc1oc(-c2ccccc2Cl)nc1CSCC(=O)O,inactive: -10.4%
11,COc1ccccc1NC(=O)N[C@H]1CC[C@@H](CCn2cc(C3(O)CCCC3)nn2)O[C@@H]1CO,inconclusive: 64.7%
12,CCOc1ccc(C(=O)NCC(=O)NCCCn2nc(C)cc2C)cc1OCC,inconclusive: 35.5%
13,C[C@@H](NC(=O)C[C@H]1CC[C@H](NC(=O)Nc2ccc3c(c2)OCO3)[C@H](CO)O1)c1ccccc1,inactive: -0.54%
14,CC1(c2cccc(N)c2)OCCO1,inconclusive: 27.9%
15,C[C@H](CO)N1C[C@H](C)[C@H](CN(C)S(=O)(=O)c2cccs2)Oc2c(NS(=O)(=O)c3ccc(Cl)cc3)cccc2C1=O,active: 24.5%
16,C=CCOc1ccccc1OCC(O)CNC(C)C (stereo not given),active: 39.7%
17,O=C(c1nc2ccccc2[nH]1)c1ccccc1[N+](=O)[O-],inconclusive: 29.1%
18,CN1C(=O)c2cc(NC(=O)C3CC3)ccc2OC[C@H]2O[C@@H](CC(=O)NCC3CCCCC3)CC[C@@H]21,inconclusive: 20.9%
19,COc1ccc(CCN2C(=O)CSC2=S)cc1OC,inactive: 2.83%
20,CC=Cc1ccc2n(c1=O)C[C@@H]1[C@@H](CO)[C@H](C(=O)N3CCOCC3)N(Cc3ccccc3OC)[C@H]21 (mixture of isomers),inactive: -4.39%

# A second format for part of the listing above:
row | SMILES | CPE inhibition
13 | C[C@@H](NC(=O)C[C@H]1CC[C@H](NC(=O)Nc2ccc3c(c2)OCO3)[C@H](CO)O1)c1ccccc1 | inactive: -0.54%
14 | CC1(c2cccc(N)c2)OCCO1 | inconclusive: 27.9%
